The list is a part of this screen's results and no random one: it covers a few groups of compounds. Not every dose and run of a compound is shown. T/C: endpoint of the treated group in % of that of the vehicle group. For survival time, this PubChem deposit counts one and a half times the control or more as active, and values a quarter to a half above the control carry no call in these data; other NCI protocols may use other cut-offs. Schedules are NCI's codes, read here as Q, the interval in days (D) or hours (H), X, the number of doses. Some entries were tested several times; the values are given in rising order.
Test system: BALB/cJ mice, ADJ-PC-6 ip tumor, median survival T/C
Test: NCI In Vivo Anticancer Drug Screen. Data for tumor model ADJ-PC-6 (intraperitoneal) in BALB/cJ mice
Conditions: T/C endpoint: median survival time, schedule: Q04DX003 (ip), vehicle: saline, higher T/C = longer survival
Description: The antitumor activity of compounds was measured in mice bearing transplantable tumors. Survival or tumor size were measured and the results are expressed as the measurement made in the treated group (T) divided by the measurement made in the vehicle treated control group (C). The tumor model used in this assay is ADJ-PC-6 (intraperitoneal) in BALB/cJ mice

## CN(CCCl)CCCl
dose: 0.15 mg/kg/injection
  T/C: 138 and 171 % of control
dose: 0.3 mg/kg/injection
  T/C: 176 and 177 % of control
dose: 0.6 mg/kg/injection
  T/C: 168 and 189 % of control
dose: 1.2 mg/kg/injection
  T/C: 190 and 230 % of control
dose: 2.4 mg/kg/injection
  T/C: 277 % of control

Reference: PubChem BioAssay AID184 (DTP/NCI, 2004)
